# Measurements published in the supplement of paper PMC8728848.
# The list shows a part of the results.
# B1: SJCP1531 (Schistosoma japonicum) (protein)
# chain: MFKVRIINLVNISTVLLLINLLQTKSQVNVEQLVTVLEVNIKAQLKNKTTEVLVEWNPLYQDNSMPEYRKLLDETCKLFLPFVNEKVPPSTYGGECTNANFSEAPQDGSYSRVNAELRLIYKYSDNPQIQTDRLQDDLNDREEFITSESSFVAYNPKFTVKIEKLFIPISESQTTPPPTTAKNDASKKDDDDNGGEDSKAPIDTFAMTASGNKGKKDDDDNGGEDSKAPIDTFAMTASGSKDERSTWTIIGIITLVVLIFVVIGGGITVFVKRC
# Experiments:
# Experiment in all cases: glycan array binding signal (z-score within array); higher = stronger binding
# Conditions in all cases: glycan notation: IUPAC condensed, linker removed
# Gal3S(b1-4)Glc = target: Gal3S(b1-4)Glc
# Method in brief: (§1)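 From the Consortium for Functional Glycomics database, 3228 arrays were curated, keeping only those whose protein sequence was available. Binding is given as a within-array Z-score averaged across arrays sharing a protein sequence and across linkers. Negative Z-scores can be read as non-binding.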
# Gal3S(b1-4)Glc6S = target: Gal3S(b1-4)Glc6S
# Method in brief: as §1
# Gal3S(b1-4)GlcNAc = target: Gal3S(b1-4)GlcNAc
# Method in brief: as §1
# [1] = target: Gal3S(b1-4)[Fuc(a1-3)]Glc6S
# Method in brief: as §1
# [2] = target: Gal3S(b1-4)[Fuc(a1-3)]GlcNAc
# Method in brief: as §1
# [3] = target: Gal3S(b1-4)[Fuc(a1-3)]GlcNAc6S
# Method in brief: as §1
# Gal3S4S(b1-4)GlcNAc = target: Gal3S4S(b1-4)GlcNAc
# Method in brief: as §1
# Gal3S6S(b1-4)GlcNAc = target: Gal3S6S(b1-4)GlcNAc
# Method in brief: as §1
# Gal3S6S(b1-4)GlcNAc6S = target: Gal3S6S(b1-4)GlcNAc6S
# Method in brief: as §1
# Gal4S(b1-4)GlcNAc = target: Gal4S(b1-4)GlcNAc
# Method in brief: as §1
# Gal4S6S(b1-4)GlcNAc = target: Gal4S6S(b1-4)GlcNAc
# Method in brief: as §1
# Gal6P(b1-4)GlcNAc = target: Gal6P(b1-4)GlcNAc
# Method in brief: as §1
# Gal6S(b1-3)GlcNAc = target: Gal6S(b1-3)GlcNAc
# Method in brief: as §1
# Gal6S(b1-3)GlcNAc6S = target: Gal6S(b1-3)GlcNAc6S
# Method in brief: as §1
# Gal6S(b1-4)Glc = target: Gal6S(b1-4)Glc
# Method in brief: as §1
# Gal6S(b1-4)Glc6S = target: Gal6S(b1-4)Glc6S
# Method in brief: as §1
# Gal6S(b1-4)GlcNAc = target: Gal6S(b1-4)GlcNAc
# Method in brief: as §1
# Gal6S(b1-4)GlcNAc6S = target: Gal6S(b1-4)GlcNAc6S
# Method in brief: as §1
# GalNAc(a1-3)Gal = target: GalNAc(a1-3)Gal
# Method in brief: as §1
# GalNAc(a1-3)GalNAc = target: GalNAc(a1-3)GalNAc
# Method in brief: as §1
# [4] = target: GalNAc(a1-3)GalNAc(b1-3)Gal(a1-4)Gal(b1-4)Glc
# Method in brief: as §1
# [5] = target: GalNAc(a1-3)GalNAc(b1-3)Gal(a1-4)Gal(b1-4)GlcNAc
# Method in brief: as §1
# GalNAc(b1-3)Gal = target: GalNAc(b1-3)Gal
# Method in brief: as §1
# [6] = target: GalNAc(b1-3)Gal(a1-4)Gal(b1-4)GlcNAc
# Method in brief: as §1
# [7] = target: GalNAc(b1-3)Gal(a1-4)Gal(b1-4)GlcNAc(b1-3)Gal(b1-4)Glc
# Method in brief: as §1
# [8] = target: GalNAc(b1-3)Gal(a1-6)Gal(b1-4)Glc
# Method in brief: as §1
# GalNAc(b1-3)GalNAc = target: GalNAc(b1-3)GalNAc
# Method in brief: as §1
# GalNAc(b1-3)GlcNAc = target: GalNAc(b1-3)GlcNAc
# Method in brief: as §1
# GalNAc(b1-4)Gal(b1-4)Glc = target: GalNAc(b1-4)Gal(b1-4)Glc
# Method in brief: as §1
# GalNAc(b1-4)GlcNAc = target: GalNAc(b1-4)GlcNAc
# Method in brief: as §1
# [9] = target: GalNAc(b1-4)GlcNAc(b1-2)Man
# Method in brief: as §1
# [10] = target: GalNAc(b1-4)GlcNAc(b1-2)Man(a1-3)[GalNAc(b1-4)GlcNAc(b1-2)Man(a1-6)]Man(b1-4)GlcNAc(b1-4)GlcNAc
# Method in brief: as §1
# [11] = target: GalNAc(b1-4)GlcNAc(b1-3)GalNAc(b1-4)GlcNAc
# Method in brief: as §1
# GalNAc(b1-4)GlcNAc6S = target: GalNAc(b1-4)GlcNAc6S
# Method in brief: as §1
# GalNAc(b1-6)GalNAc = target: GalNAc(b1-6)GalNAc
# Method in brief: as §1
# GalNAc3S(b1-4)GlcNAc = target: GalNAc3S(b1-4)GlcNAc
# Method in brief: as §1
# GalNAc3S(b1-4)GlcNAc3S = target: GalNAc3S(b1-4)GlcNAc3S
# Method in brief: as §1
# [12] = target: GalNAc3S(b1-4)[Fuc(a1-3)]GlcNAc
# Method in brief: as §1
# GalNAc4S6S(b1-4)GlcNAc = target: GalNAc4S6S(b1-4)GlcNAc
# Method in brief: as §1
# GalNAc6S(b1-4)GlcNAc = target: GalNAc6S(b1-4)GlcNAc
# Method in brief: as §1
# Glc(a1-4)Glc = target: Glc(a1-4)Glc
# Method in brief: as §1
# [13] = target: Glc(a1-4)Glc(a1-4)Glc(a1-4)Glc
# Method in brief: as §1
# Glc(a1-6)Glc(a1-6)Glc = target: Glc(a1-6)Glc(a1-6)Glc
# Method in brief: as §1
# [14] = target: Glc(a1-6)Glc(a1-6)Glc(a1-6)Glc
# Method in brief: as §1
# Glc(b1-4)Glc = target: Glc(b1-4)Glc
# Method in brief: as §1
binder,measurement,setting,value
B1,glycan array binding signal (z-score),Gal3S(b1-4)Glc,-0.369
same,glycan array binding signal (z-score),Gal3S(b1-4)Glc6S,-0.295
same,glycan array binding signal (z-score),Gal3S(b1-4)GlcNAc,0.508
same,glycan array binding signal (z-score),[1],0.708
same,glycan array binding signal (z-score),[2],0.704
same,glycan array binding signal (z-score),[3],1.28
same,glycan array binding signal (z-score),Gal3S4S(b1-4)GlcNAc,-0.234
same,glycan array binding signal (z-score),Gal3S6S(b1-4)GlcNAc,1.01
same,glycan array binding signal (z-score),Gal3S6S(b1-4)GlcNAc6S,3.17
same,glycan array binding signal (z-score),Gal4S(b1-4)GlcNAc,-0.78
same,glycan array binding signal (z-score),Gal4S6S(b1-4)GlcNAc,-0.722
same,glycan array binding signal (z-score),Gal6P(b1-4)GlcNAc,-1.05
same,glycan array binding signal (z-score),Gal6S(b1-3)GlcNAc,0.127
same,glycan array binding signal (z-score),Gal6S(b1-3)GlcNAc6S,1.38
same,glycan array binding signal (z-score),Gal6S(b1-4)Glc,-0.424
same,glycan array binding signal (z-score),Gal6S(b1-4)Glc6S,-0.87
same,glycan array binding signal (z-score),Gal6S(b1-4)GlcNAc,-0.352
same,glycan array binding signal (z-score),Gal6S(b1-4)GlcNAc6S,1.72
same,glycan array binding signal (z-score),GalNAc(a1-3)Gal,1.48
same,glycan array binding signal (z-score),GalNAc(a1-3)GalNAc,0.614
same,glycan array binding signal (z-score),[4],-1.11
same,glycan array binding signal (z-score),[5],0.943
same,glycan array binding signal (z-score),GalNAc(b1-3)Gal,0.65
same,glycan array binding signal (z-score),[6],-0.285
same,glycan array binding signal (z-score),[7],0.838
same,glycan array binding signal (z-score),[8],-1.1
same,glycan array binding signal (z-score),GalNAc(b1-3)GalNAc,0.218
same,glycan array binding signal (z-score),GalNAc(b1-3)GlcNAc,-1.66
same,glycan array binding signal (z-score),GalNAc(b1-4)Gal(b1-4)Glc,-0.062
same,glycan array binding signal (z-score),GalNAc(b1-4)GlcNAc,0.689
same,glycan array binding signal (z-score),[9],-1.15
same,glycan array binding signal (z-score),[10],-0.787
same,glycan array binding signal (z-score),[11],-0.416
same,glycan array binding signal (z-score),GalNAc(b1-4)GlcNAc6S,-0.226
same,glycan array binding signal (z-score),GalNAc(b1-6)GalNAc,2.81
same,glycan array binding signal (z-score),GalNAc3S(b1-4)GlcNAc,-0.858
same,glycan array binding signal (z-score),GalNAc3S(b1-4)GlcNAc3S,-0.422
same,glycan array binding signal (z-score),[12],-1.15
same,glycan array binding signal (z-score),GalNAc4S6S(b1-4)GlcNAc,-1.04
same,glycan array binding signal (z-score),GalNAc6S(b1-4)GlcNAc,-1.74
same,glycan array binding signal (z-score),Glc(a1-4)Glc,-0.823
same,glycan array binding signal (z-score),[13],1.38
same,glycan array binding signal (z-score),Glc(a1-6)Glc(a1-6)Glc,-1.03
same,glycan array binding signal (z-score),[14],-0.401
same,glycan array binding signal (z-score),Glc(b1-4)Glc,-1.55

# No new results follow: an excerpt of the list.
binder,measurement,setting,value
B1,glycan array binding signal (z-score),Gal6S(b1-3)GlcNAc,0.127
same,glycan array binding signal (z-score),Gal6S(b1-3)GlcNAc6S,1.38
same,glycan array binding signal (z-score),Gal6S(b1-4)Glc,-0.424
